Laboratory results taken from article PMC11624362.
The comparison behind a weaker result is the experiment's own reference, which may not be listed here.

System: DNMT3A1-DNMT3L complex (human)
Experiment: EMSA
Conditions: Fragments: 15 mM HEPES pH 7.5, 75 mM NaCl, 0.05% Triton X-100, 0.05 mg/mL BSA, 10% glycerol, 1 mM DTT, 0.5 mg/mL salmon sperm DNA with nucleosomes, on ice 1 h; recombinant protein

“TGGAGAATCCCGGTGCCGAGGCCGCTCAATTGGTCGTAGACAGCTCTAGCACCGCTTAAACGCACGTACGCGCTGTCCCCCGCGTTTTAACCGCCAAGGGGATTACTCCCTAGTCTCCAGGCACGTGTCAGATATATACATCCTGTCACCATACGCCCTAATTAGAGGCGTAATCCCCCAGTTCGCGCGCCCACC (double strand) [195 bp DNA (Widom 601 + 50 bp linker)]”: binds more weakly.
